Measurements reported in PubChem BioAssay AID720505 (Drosophila RNAi Screening Center, 2013).
Purpose: 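Fly regulators or components of the CRAC channel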 (primary screen). Cell system: Drosophila S2R+ cells. Reagents: long dsRNA against Drosophila genes. Challenge: thapsigargin (2 µM) in calcium-free buffer to empty internal stores, then 2 mM calcium added back. Read-out: 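Stores emptied by 2 µM thapsigargin without calcium, then 2 mM calcium re-added; fluo-4 fluorescence followed by FLIPR in 384-well plates, per-well averaged endpoint, raw; two screen passes, some wells retested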. Direction: calcium signal and retest calcium signal: higher = more calcium entry after store depletion. Hit rule: 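About 1500 genes called as lowering calcium entry, by varying amounts, judged against per-plate control wells with STIM1 as positive and Rho1 as negative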. Calls: active = called as lowering calcium entry; inactive = not called.
The screen tested about 20,000 reagents; shown is a random part of those that have a named target and a result. Over the whole deposit, about 2,100 (10%) were called active. 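Raw plate signals without normalisation; calls rest on control-based scores that were not deposited; replicate 2 separates called from uncalled poorly.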 The numbers tell different reagents against one gene apart. Names joined by + are all predicted targets of the reagent. Not given: the amount of reagent, the time to read-out.

| predicted target | dsRNA no. | calcium signal, replicate 1 | calcium signal, replicate 2 | retest calcium signal, replicate 1 | retest calcium signal, replicate 2 | Call |
| --- | --- | --- | --- | --- | --- | --- |
| Sgs1 | 1 | 71.7 | 148 | – | – | active |
| Sgs1 | 2 | 66.8 | 147 | – | – | active |
| CG1317 | 1 | 130 | 93.8 | – | – | inactive |
| ECSIT | 1 | 130 | 175 | – | – | inactive |
| beg | 1 | 89 | 142 | – | – | inactive |
| sov | 1 | 183 | 142 | – | – | inactive |
| TwdlZ | 1 | 86.6 | 107 | – | – | inactive |
| CG15482 | 1 | 81.1 | 109 | – | – | inactive |
| Osi7 | 1 | 66.2 | 139 | – | – | active |
| Klp67A + CG34456 | 1 | 83.1 | 83.5 | – | – | inactive |
| Grx3 | 1 | 85.6 | 127 | – | – | inactive |
| CG15221 | 1 | 113 | 128 | – | – | inactive |
| CG9222 | 1 | 72 | 137 | – | – | active |
| Cep164 | 1 | 83 | 108 | – | – | inactive |
| Ranbp21 | 1 | 104 | 94.9 | – | – | inactive |
| CG14642 | 1 | 112 | 98.1 | – | – | inactive |
| mus304 | 1 | 96.6 | 129 | – | – | inactive |
| CG15126 | 1 | 177 | 148 | – | – | inactive |
| CG42662 + CG30080 | 1 | 114 | 122 | – | – | inactive |
| CG6171 | 1 | 114 | 145 | – | – | inactive |
| Rab10 | 1 | 89.4 | 95 | – | – | inactive |
| CG31091 | 1 | 222 | 158 | – | – | inactive |
| Cpr64Ad | 1 | 99.7 | 77.6 | – | – | inactive |
| Amt | 1 | 130 | 146 | – | – | inactive |
| Syt14 | 1 | 84.5 | 193 | – | – | inactive |
| Xxylt | 1 | 193 | 151 | – | – | inactive |
| CG31800 | 1 | 112 | 86.1 | – | – | inactive |
| Mo25 | 1 | 84.4 | 98.1 | – | – | inactive |
| CG31886 | 1 | 100 | 82.5 | – | – | inactive |
| Pal1 + Pdrg1 | 1 | 86.5 | 104 | – | – | inactive |
| CG5122 | 1 | 109 | 84.8 | – | – | inactive |
| Ugt36F1 | 1 | 93.1 | 75.4 | – | – | inactive |
| orion | 1 | 197 | 102 | – | – | inactive |
| orion | 2 | 172 | 136 | – | – | inactive |
| Rnp4F | 1 | 135 | 94.2 | – | – | inactive |
| CG13544 | 1 | 120 | 273 | – | – | inactive |
| PPP1R15 | 1 | 112 | 80.7 | – | – | inactive |
| Arpc3B | 1 | 86.4 | 105 | – | – | inactive |
| Nop60B | 1 | 162 | 80.3 | – | – | inactive |
| Kcmf1 | 1 | 99.4 | 133 | – | – | inactive |
| Sr-CIII | 1 | 103 | 163 | – | – | inactive |
| CG4741 | 1 | 134 | 171 | – | – | inactive |
| CG4741 | 2 | 137 | 222 | – | – | inactive |

Taken from above.
Under “Call”, Amt reads inactive
Value for Osi7 under “calcium signal, replicate 2”: 139
Under “Call”, Arpc3B reads inactive
Under “calcium signal, replicate 2”, CG13544 has 273
Entry for Mo25 in “Call”: inactive
Entry of Xxylt under “calcium signal, replicate 1”: 193

The list goes on:
| predicted target | dsRNA no. | calcium signal, replicate 1 | calcium signal, replicate 2 | retest calcium signal, replicate 1 | retest calcium signal, replicate 2 | Call |
| --- | --- | --- | --- | --- | --- | --- |
| Kaz1-ORFB | 1 | 96.3 | 155 | – | – | inactive |
| uncNacbeta | 1 | 108 | 132 | – | – | inactive |
| mIF3 | 1 | 141 | 164 | – | – | inactive |
| CG12934 | 1 | 123 | 118 | – | – | inactive |
| CG10909 | 1 | 54.4 | 207 | – | – | active |
| cola + swif | 1 | 99.7 | 151 | – | – | inactive |
| cola + swif | 2 | 89.3 | 276 | – | – | inactive |
| CG34125 | 1 | 96.8 | 165 | – | – | inactive |
| CG6683 | 1 | 119 | 118 | – | – | inactive |
| CG9386 | 1 | 109 | 165 | – | – | inactive |
| ms(2)34Fe | 1 | 101 | 85.6 | – | – | inactive |
| CG13667 | 1 | 88.8 | 122 | – | – | inactive |
| CG12672 | 1 | 126 | 171 | 5873 | 98.7 | inactive |
| GNBP3 | 1 | 93.5 | 82.2 | – | – | inactive |
| CG12520 | 1 | 68.7 | 49.4 | – | – | active |
| CG2962 | 1 | 172 | 132 | – | – | inactive |
| mRpL18 | 1 | 57.8 | 201 | – | – | active |
| CG15537 | 1 | 135 | 119 | – | – | inactive |
| crc | 1 | 192 | 75.9 | – | – | inactive |
| CG15014 | 1 | 97 | 96.3 | – | – | inactive |
| mei-W68 | 1 | 175 | 134 | – | – | inactive |
| Rab9D + Rab9Fa + Rab9E | 1 | 113 | 83.2 | – | – | inactive |
| CG42445 | 1 | 107 | 119 | – | – | inactive |
| sds22 | 1 | 132 | 173 | – | – | inactive |
| CG33230 | 1 | 128 | 163 | – | – | inactive |
| Etl1 | 1 | 105 | 95.1 | – | – | inactive |
| CG13898 | 1 | 81.1 | 108 | – | – | inactive |
| tomboy40 | 1 | 181 | 87.5 | – | – | inactive |
| Gr93a | 1 | 260 | 187 | – | – | inactive |
| rho-6 | 1 | 82.5 | 94.6 | – | – | inactive |
| SF2 | 1 | 107 | 234 | – | – | inactive |
| Myo61F | 1 | 82.7 | 173 | – | – | inactive |
| lectin-37Da | 1 | 157 | 88.3 | 119 | 112 | inactive |
| lectin-37Da | 2 | 104 | 172 | – | – | inactive |
| CycG | 1 | 118 | 119 | – | – | inactive |
| CycG | 2 | 109 | 143 | – | – | inactive |
| CG15040 | 1 | 110 | 179 | – | – | inactive |
| CG15040 | 2 | 111 | 125 | – | – | inactive |
| fan | 1 | 111 | 90.3 | – | – | inactive |
| Dim1 | 1 | 90.6 | 78.7 | – | – | inactive |
| CG33170 | 1 | 90.2 | 111 | – | – | inactive |
| CG33170 | 2 | 66.4 | 213 | – | – | inactive |
| CanB2 | 1 | 144 | 143 | – | – | inactive |
| PAN2 | 1 | 108 | 146 | – | – | inactive |
| CG3021 | 1 | 99.4 | 146 | – | – | inactive |
| CG3021 | 2 | 108 | 139 | – | – | inactive |
| CG2938 | 1 | 117 | 137 | – | – | inactive |
| ND-B14.5AL | 1 | 103 | 243 | – | – | inactive |
| kud | 1 | 120 | 164 | – | – | inactive |
| CG4456 + Hsp22 | 1 | 87.4 | 83.9 | – | – | inactive |
| CG4456 + Hsp22 | 2 | 99.1 | 105 | – | – | inactive |
| SK | 1 | 107 | 88.3 | – | – | inactive |
| SK | 2 | 122 | 79 | – | – | inactive |
| SK | 3 | 122 | 107 | – | – | inactive |
| SK | 4 | 88.7 | 76.5 | – | – | inactive |
| SK | 5 | 86.2 | 147 | – | – | inactive |
| PH4alphaSG1 | 1 | 136 | 155 | – | – | inactive |
| CG31674 | 1 | 165 | 117 | – | – | inactive |
| CG43331 | 1 | 94.3 | 121 | – | – | inactive |
| AgmNAT | 1 | 156 | 124 | – | – | inactive |
| CG4576 | 1 | 117 | 162 | – | – | inactive |
| Sf3a1 | 1 | 120 | 116 | – | – | active |
| Kdm4B | 1 | 162 | 117 | – | – | inactive |
